Measurements: publication PMC8268887 (International Journal of Molecular Sciences, 2021)
Values joined by “and” are separate entries in the source; they are usually repeats but may differ in a detail not shown here. Equal values may be shown once.

System: HepG2 cell line ATCC HB-8065
Assay: Antiproliferative activity on HepG2 cell line (MTT assay)
Format: cell-based
Conditions: ratio between HepG2 IC50 and MIC against A. baumannii
Method: Effect of compounds on mammalian cell viability was estimated on the HepG2 cell line ATCC HB-8065. In brief, HepG2 cells were seeded into flat-bottomed 96-well plates at a concentration of 5000 cells per well. Subsequently, the cells were incubated for 24 h in a humidified incubator (5% CO2, 37 °C). Then, the medium was removed, and the cells were incubated for 48 h in a humidified incubator (5% CO2, 37 °C) with peptidomimetics in serial dilutions. Then, an 3-(4,5-dimethylthiazol-2-yl)-2,5-diphenyltetrazolium bromide (MTT) assay was performed as previously described. In brief, after incubation with the test compounds, the culture medium was removed, and then fresh medium with 0.2 mg/mL MTT was added into each well of the plate. The cells were then incubated (3 h, 37 °C, 5% CO2), followed by removal of the medium with MTT and addition of 200 μL dimethyl sulfoxide at once to each sample. Absorbance of MTT was measured using the spectrophotometer TECAN Infinite M1000 at 540 nm. The relative viability was calculated by using the formula: ODtreated cells × 100/ODcontrol cells. The IC50 values are calculated by using the program Graph Pad Prism® 5.0. For all compounds, the test range was 10–1280 μg/mL.

SMILES | SI (Selectivity Index) for A. baumannii
NCCCC[C@H](NC(=O)CCN(Cc1ccc(F)cc1)C(=O)[C@H](CCCCN)NC(=O)CCN(Cc1ccc(F)cc1)C(=O)[C@H](CCCCN)NC(=O)CCOCCOCCOCCOCCOCCOCCNC(=O)CCN(Cc1ccc(F)cc1)C(=O)[C@H](CCCCN)NC(=O)CCN(Cc1ccc(F)cc1)C(=O)[C@H](CCCCN)NC(=O)CCN(Cc1ccc(F)cc1)C(=O)[C@@H](N)CCCCN)C(=O)N(CCC(N)=O)Cc1ccc(F)cc1 [Compound 10, H-[X]3-sPEG6-[X]3-NH2] | 200

Same assay, conditions: ratio between IC50 for effect on HepG2 cell viability and MIC against E. coli

SMILES | SI (Selectivity Index)
NCCCC[C@H](NC(=O)CCN(Cc1ccc(F)cc1)C(=O)[C@H](CCCCN)NC(=O)CCN(Cc1ccc(F)cc1)C(=O)[C@H](CCCCN)NC(=O)COCCOCCNC(=O)CCN(Cc1ccc(F)cc1)C(=O)[C@H](CCCCN)NC(=O)CCN(Cc1ccc(F)cc1)C(=O)[C@H](CCCCN)NC(=O)CCN(Cc1ccc(F)cc1)C(=O)[C@@H](N)CCCCN)C(=O)N(CCC(N)=O)Cc1ccc(F)cc1 [Compound 7, H-[X]3-sPEG2-[X]3-NH2] | 155
NCCCC[C@H](NC(=O)CCN(Cc1ccc(F)cc1)C(=O)[C@H](CCCCN)NC(=O)CCN(Cc1ccc(F)cc1)C(=O)[C@H](CCCCN)NC(=O)CCOCCOCCOCCOCCNC(=O)CCN(Cc1ccc(F)cc1)C(=O)[C@H](CCCCN)NC(=O)CCN(Cc1ccc(F)cc1)C(=O)[C@H](CCCCN)NC(=O)CCN(Cc1ccc(F)cc1)C(=O)[C@@H](N)CCCCN)C(=O)N(CCC(N)=O)Cc1ccc(F)cc1 [Compound 9, H-[X]3-sPEG4-[X]3-NH2] | 173
NCCCC[C@H](NC(=O)CCN(Cc1ccc(F)cc1)C(=O)[C@H](CCCCN)NC(=O)CCOCCOCCOCCOCCNC(=O)CCN(Cc1ccc(F)cc1)C(=O)[C@H](CCCCN)NC(=O)CCN(Cc1ccc(F)cc1)C(=O)[C@H](CCCCN)NC(=O)CCOCCOCCOCCOCCNC(=O)CCN(Cc1ccc(F)cc1)C(=O)[C@H](CCCCN)NC(=O)CCN(Cc1ccc(F)cc1)C(=O)[C@@H](N)CCCCN)C(=O)N(CCC(N)=O)Cc1ccc(F)cc1 [Compound 18, H-[X]2-sPEG4-[X]2-sPEG4-[X]2-NH2] | 300–350 and 160–320
NCCCC[C@H](NC(=O)CCN(Cc1ccc(F)cc1)C(=O)[C@H](CCCCN)NC(=O)CCN(Cc1ccc(F)cc1)C(=O)[C@H](CCCCN)NC(=O)CCN(Cc1ccc(F)cc1)C(=O)[C@H](CCCCN)NC(=O)CCN(Cc1ccc(F)cc1)C(=O)[C@H](CCCCN)NC(=O)CCN(Cc1ccc(F)cc1)C(=O)[C@@H](N)CCCCN)C(=O)N(CCC(N)=O)Cc1ccc(F)cc1 [Compound 1, H-[Lys-βNPhe(4-F)]6-NH2] | 58–116
NCCCC[C@H](NC(=O)CCN(Cc1ccc(F)cc1)C(=O)[C@H](CCCCN)NC(=O)CCN(Cc1ccc(F)cc1)C(=O)[C@H](CCCCN)NC(=O)COCCOCCOCCNC(=O)CCN(Cc1ccc(F)cc1)C(=O)[C@H](CCCCN)NC(=O)CCN(Cc1ccc(F)cc1)C(=O)[C@H](CCCCN)NC(=O)CCN(Cc1ccc(F)cc1)C(=O)[C@@H](N)CCCCN)C(=O)N(CCC(N)=O)Cc1ccc(F)cc1 [Compound 8, H-[X]3-sPEG3-[X]3-NH2] | 150
NCCCC[C@H](NC(=O)CCN(Cc1ccc(F)cc1)C(=O)[C@H](CCCCN)NC(=O)CCN(Cc1ccc(F)cc1)C(=O)[C@H](CCCCN)NC(=O)CCOCCOCCOCCOCCOCCOCCNC(=O)CCN(Cc1ccc(F)cc1)C(=O)[C@H](CCCCN)NC(=O)CCN(Cc1ccc(F)cc1)C(=O)[C@H](CCCCN)NC(=O)CCN(Cc1ccc(F)cc1)C(=O)[C@@H](N)CCCCN)C(=O)N(CCC(N)=O)Cc1ccc(F)cc1 [Compound 10, H-[X]3-sPEG6-[X]3-NH2] | 100–200
NCCCC[C@H](NC(=O)CCN(Cc1ccc(F)cc1)C(=O)[C@H](CCCCN)NC(=O)COCCOCCNC(=O)CCN(Cc1ccc(F)cc1)C(=O)[C@H](CCCCN)NC(=O)CCN(Cc1ccc(F)cc1)C(=O)[C@H](CCCCN)NC(=O)COCCOCCNC(=O)CCN(Cc1ccc(F)cc1)C(=O)[C@H](CCCCN)NC(=O)CCN(Cc1ccc(F)cc1)C(=O)[C@@H](N)CCCCN)C(=O)N(CCC(N)=O)Cc1ccc(F)cc1 [Compound 16, H-[X]2-sPEG2-[X]2-sPEG2-[X]2-NH2] | 300–350 and 172–344
NCCCC[C@H](NC(=O)CCN(Cc1ccc(F)cc1)C(=O)[C@H](CCCCN)NC(=O)CCN(Cc1ccc(F)cc1)C(=O)[C@H](CCCCN)NC(=O)COCCOCCN)C(=O)N(CCC(=O)NCCOCCOCC(=O)N[C@@H](CCCCN)C(=O)N(CCC(=O)N[C@@H](CCCCN)C(=O)N(CCC(=O)N[C@@H](CCCCN)C(=O)N(CCC(=O)NCCOCCOCC(N)=O)Cc1ccc(F)cc1)Cc1ccc(F)cc1)Cc1ccc(F)cc1)Cc1ccc(F)cc1 [Compound 12, H-sPEG2-[X]3-sPEG2-[X]3-sPEG2-NH2] | 21–42
NCCCC[C@H](NC(=O)CCN(Cc1ccc(F)cc1)C(=O)[C@H](CCCCN)NC(=O)CCN(Cc1ccc(F)cc1)C(=O)[C@H](CCCCN)NC(=O)COCCNC(=O)CCN(Cc1ccc(F)cc1)C(=O)[C@H](CCCCN)NC(=O)CCN(Cc1ccc(F)cc1)C(=O)[C@H](CCCCN)NC(=O)CCN(Cc1ccc(F)cc1)C(=O)[C@@H](N)CCCCN)C(=O)N(CCC(N)=O)Cc1ccc(F)cc1 [Compound 6, H-[X]3-sPEG1-[X]3-NH2] | 190
NCCCC[C@H](NC(=O)CCN(Cc1ccc(F)cc1)C(=O)[C@H](CCCCN)NC(=O)CCN(Cc1ccc(F)cc1)C(=O)[C@H](CCCCN)NC(=O)CCOCCOCCOCCOCCN)C(=O)N(CCC(=O)NCCOCCOCCOCCOCCC(=O)N[C@@H](CCCCN)C(=O)N(CCC(=O)N[C@@H](CCCCN)C(=O)N(CCC(=O)N[C@@H](CCCCN)C(=O)N(CCC(=O)NCCOCCOCCOCCOCCC(N)=O)Cc1ccc(F)cc1)Cc1ccc(F)cc1)Cc1ccc(F)cc1)Cc1ccc(F)cc1 [Compound 14, H-sPEG4-[X]3-sPEG4-[X]3-sPEG4-NH2] | 28
NCCCC[C@H](NC(=O)CCN(Cc1ccc(F)cc1)C(=O)[C@H](CCCCN)NC(=O)COCCNC(=O)CCN(Cc1ccc(F)cc1)C(=O)[C@H](CCCCN)NC(=O)CCN(Cc1ccc(F)cc1)C(=O)[C@H](CCCCN)NC(=O)COCCNC(=O)CCN(Cc1ccc(F)cc1)C(=O)[C@H](CCCCN)NC(=O)CCN(Cc1ccc(F)cc1)C(=O)[C@@H](N)CCCCN)C(=O)N(CCC(N)=O)Cc1ccc(F)cc1 [Compound 15, H-[X]2-sPEG1-[X]2-sPEG1-[X]2-NH2] | 142
NCCCC[C@H](NC(=O)CCN(Cc1ccc(F)cc1)C(=O)[C@H](CCCCN)NC(=O)COCCOCCOCCNC(=O)CCN(Cc1ccc(F)cc1)C(=O)[C@H](CCCCN)NC(=O)CCN(Cc1ccc(F)cc1)C(=O)[C@H](CCCCN)NC(=O)COCCOCCOCCNC(=O)CCN(Cc1ccc(F)cc1)C(=O)[C@H](CCCCN)NC(=O)CCN(Cc1ccc(F)cc1)C(=O)[C@@H](N)CCCCN)C(=O)N(CCC(N)=O)Cc1ccc(F)cc1 [Compound 17, H-[X]2-sPEG3-[X]2-sPEG3-[X]2-NH2] | 160
